# Results from the supplement of paper PMC8728848.
# The other results are listed elsewhere or left out.
# Legend:
# Assay in all cases: glycan array binding signal (z-score within array); higher = stronger binding
# Details in all cases: glycan notation: IUPAC condensed, linker removed
# [1] = molecular target: Neu5Ac(a2-8)Neu5Ac(a2-3)Gal(b1-4)Glc
# Procedure, shortened: (§1)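 From the Consortium for Functional Glycomics database, 3228 arrays were curated, keeping only those whose protein sequence was available. Binding is given as a within-array Z-score averaged across arrays sharing a protein sequence and across linkers. Negative Z-scores can be read as non-binding.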
# [2] = molecular target: Neu5Ac(a2-8)Neu5Ac(a2-3)Gal(b1-4)GlcNAc
# Procedure, shortened: as §1
# [3] = molecular target: Neu5Ac(a2-8)Neu5Ac(a2-3)[Gal(b1-3)GalNAc(b1-4)]Gal(b1-4)Glc
# Procedure, shortened: as §1
# [4] = molecular target: Neu5Ac(a2-8)Neu5Ac(a2-3)[GalNAc(b1-4)]Gal(b1-4)Glc
# Procedure, shortened: as §1
# [5] = molecular target: Neu5Ac(a2-8)Neu5Ac(a2-8)Neu5Ac
# Procedure, shortened: as §1
# [6] = molecular target: Neu5Ac(a2-8)Neu5Ac(a2-8)Neu5Ac(a2-3)Gal(b1-4)Glc
# Procedure, shortened: as §1
# [7] = molecular target: Neu5Ac(a2-8)Neu5Ac(a2-8)Neu5Ac(a2-3)[Gal(b1-3)GalNAc(b1-4)]Gal(b1-4)Glc
# Procedure, shortened: as §1
# [8] = molecular target: Neu5Ac(a2-8)Neu5Ac(a2-8)Neu5Ac(a2-3)[GalNAc(b1-4)]Gal(b1-4)Glc
# Procedure, shortened: as §1
# [9] = molecular target: Neu5Ac(a2-8)Neu5Ac(a2-8)Neu5Ac(a2-8)Neu5Ac(a2-3)[GalNAc(b1-4)]Gal(b1-4)Glc
# Procedure, shortened: as §1
# [10] = molecular target: Neu5Ac(a2-8)Neu5Gc(a2-3)Gal(b1-4)GlcNAc
# Procedure, shortened: as §1
# [11] = molecular target: Neu5Ac(b1-6)GalNAc
# Procedure, shortened: as §1
# [12] = molecular target: Neu5Ac(b2-6)Gal(b1-4)GlcNAc
# Procedure, shortened: as §1
# [13] = molecular target: Neu5Ac(b2-6)GalNAc
# Procedure, shortened: as §1
# [14] = molecular target: Neu5Ac9Ac(a2-3)Gal(b1-3)GlcNAc
# Procedure, shortened: as §1
# [15] = molecular target: Neu5Ac9Ac(a2-3)Gal(b1-4)GlcNAc
# Procedure, shortened: as §1
# [16] = molecular target: Neu5Ac9Ac(a2-6)Gal(b1-4)GlcNAc
# Procedure, shortened: as §1
# [17] = molecular target: Neu5Gc(a2-3)Gal(b1-3)GlcNAc
# Procedure, shortened: as §1
# [18] = molecular target: Neu5Gc(a2-3)Gal(b1-3)[Fuc(a1-4)]GlcNAc
# Procedure, shortened: as §1
# [19] = molecular target: Neu5Gc(a2-3)Gal(b1-4)Glc
# Procedure, shortened: as §1
# [20] = molecular target: Neu5Gc(a2-3)Gal(b1-4)GlcNAc
# Procedure, shortened: as §1
# [21] = molecular target: Neu5Gc(a2-3)Gal(b1-4)GlcNAc(b1-3)Gal(b1-4)GlcNAc(b1-2)Man(a1-3)[Neu5Gc(a2-3)Gal(b1-4)GlcNAc(b1-3)Gal(b1-4)GlcNAc(b1-2)Man(a1-6)]Man(b1-4)GlcNAc(b1-4)GlcNAc
# Procedure, shortened: as §1
# [22] = molecular target: Neu5Gc(a2-3)Gal(b1-4)[Fuc(a1-3)]GlcNAc
# Procedure, shortened: as §1
# [23] = molecular target: Neu5Gc(a2-6)Gal(b1-4)GlcNAc
# Procedure, shortened: as §1
# [24] = molecular target: Neu5Gc(a2-6)GalNAc
# Procedure, shortened: as §1
# [25] = molecular target: Neu5Gc(a2-8)Neu5Ac(a2-3)Gal(b1-4)GlcNAc
# Procedure, shortened: as §1
# [26] = molecular target: Neu5Gc(a2-8)Neu5Gc(a2-3)Gal(b1-4)GlcNAc
# Procedure, shortened: as §1
# [27] = molecular target: Neu5Gc(a2-8)Neu5Gc(a2-3)Gal(b1-4)GlcNAc(b1-3)Gal(b1-4)GlcNAc
# Procedure, shortened: as §1
# [28] = molecular target: Neu5Gc(a2-8)Neu5Gc(a2-6)Gal(b1-4)GlcNAc
# Procedure, shortened: as §1
# [29] = molecular target: Neu5Gc(b2-6)Gal(b1-4)GlcNAc
# Procedure, shortened: as §1
binder,measurement,setting,value
"CRT-1 (Homo sapiens), P27797 (protein) MLLSVPLLLGLLGLAVAEPAVYFKEQFLDGDGWTSRWIESKHKSDFGKFVLSSGKFYGDEEKDKGLQTSQDARFYALSASFEPFSNKGQTLVVQFTVKHEQNIDCGGGYVKLFPNSLDQTDMHGDSEYNIMFGPDICGPGTKKVHVIFNYKGKNVLINKDIRCKDDEFTHLYTLIVRPDNTYEVKIDNSQVESGSLEDDWDFLPPKKIKDPDASKPEDWDERAKIDDPTDSKPEDWDKPEHIPDPDAKKPEDWDEEMDGEWEPPVIQNPEYKGEWKPRQIDNPDYKGTWIHPEIDNPEYSPDPSIYAYDNFGVLGLDLWQVKSGTIFDNFLITNDEAYAEEFGNETWGVTKAAEKQMKDKQDEEQRLKEEEEDKKRKEEEEAEDKEDDEDKDEDEEDEEDKEEDEEEDVPGQAKDEL",glycan array binding signal (z-score),[1],-0.31
same,glycan array binding signal (z-score),[2],-0.488
same,glycan array binding signal (z-score),[3],-0.631
same,glycan array binding signal (z-score),[4],0.059
same,glycan array binding signal (z-score),[5],-0.213
same,glycan array binding signal (z-score),[6],0.443
same,glycan array binding signal (z-score),[7],0.909
same,glycan array binding signal (z-score),[8],-0.406
same,glycan array binding signal (z-score),[9],0.128
same,glycan array binding signal (z-score),[10],-0.349
same,glycan array binding signal (z-score),[11],-0.091
same,glycan array binding signal (z-score),[12],-0.481
same,glycan array binding signal (z-score),[13],0.098
same,glycan array binding signal (z-score),[14],-0.124
same,glycan array binding signal (z-score),[15],0.312
same,glycan array binding signal (z-score),[16],0.185
same,glycan array binding signal (z-score),[17],-0.645
same,glycan array binding signal (z-score),[18],-0.207
same,glycan array binding signal (z-score),[19],-0.151
same,glycan array binding signal (z-score),[20],-0.316
same,glycan array binding signal (z-score),[21],-0.414
same,glycan array binding signal (z-score),[22],-0.01
same,glycan array binding signal (z-score),[23],-0.116
same,glycan array binding signal (z-score),[24],0.197
same,glycan array binding signal (z-score),[25],0.176
same,glycan array binding signal (z-score),[26],-0.33
same,glycan array binding signal (z-score),[27],-0.189
same,glycan array binding signal (z-score),[28],-0.147
same,glycan array binding signal (z-score),[29],0.165

# Rewritten with tabs: entries from further up.
binder	measurement	setting	value
CRT-1 (Homo sapiens), P27797 (protein) MLLSVPLLLGLLGLAVAEPAVYFKEQFLDGDGWTSRWIESKHKSDFGKFVLSSGKFYGDEEKDKGLQTSQDARFYALSASFEPFSNKGQTLVVQFTVKHEQNIDCGGGYVKLFPNSLDQTDMHGDSEYNIMFGPDICGPGTKKVHVIFNYKGKNVLINKDIRCKDDEFTHLYTLIVRPDNTYEVKIDNSQVESGSLEDDWDFLPPKKIKDPDASKPEDWDERAKIDDPTDSKPEDWDKPEHIPDPDAKKPEDWDEEMDGEWEPPVIQNPEYKGEWKPRQIDNPDYKGTWIHPEIDNPEYSPDPSIYAYDNFGVLGLDLWQVKSGTIFDNFLITNDEAYAEEFGNETWGVTKAAEKQMKDKQDEEQRLKEEEEDKKRKEEEEAEDKEDDEDKDEDEEDEEDKEEDEEEDVPGQAKDEL	glycan array binding signal (z-score)	[9]	0.128
same	glycan array binding signal (z-score)	[10]	-0.349
